The results in this text go back to PubChem BioAssay AID328 (DTP/NCI, 2004).

The assay relates to BDF1 mice, P388 leukemia ip, median survival T/C. The experiment in a line: NCI In Vivo Anticancer Drug Screen. Data for tumor model P388 Leukemia (intraperitoneal) in B6D2F1 (BDF1) mice. The following applies: T/C endpoint: median survival time, higher T/C = longer survival. The method, boiled down:
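Mice carrying the transplantable tumour receive compound or vehicle. Survival is followed in each arm, and the treated measure is divided by the vehicle measure.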

Where [1] appears, read: dose: 75.0 mg/kg/injection, schedule: Q01DX009 (ip), vehicle: saline with Tween-80.
Setting [2] is: dose: 400.0 mg/kg/injection, schedule: Q01DX009 (ip), vehicle: Klucel (hydroxypropylcellulose) (HPC).

The list is a part of this screen's results and no random one: it is rich in T/C values a quarter to a half above the control, in often repeated tests (any T/C) and in doses without a T/C. Further doses and runs are listed elsewhere. T/C gives the treated animals as a percentage of the vehicle group. Some doses have a count of surviving animals in place of a T/C: the source holds a T/C of zero for them, seemingly a mark for toxic or unscored doses. Some survivor counts are full or nearly so, which does not show that the dose was tolerated: survival well below the control is almost never listed, so the zero probably covers shortened survival too. Survivors were counted at the toxicity check, usually on the fifth day, unless a day is given; later deaths do not show. Schedule codes are those of the source, read here as Q, the interval in days (D) or hours (H), X, the number of doses. For survival time, this PubChem deposit counts one and a half times the control or more as active, and values a quarter to a half above the control carry no call in these data; other NCI protocols may use other cut-offs. Some entries hold several experiments; the results are listed from low to high. Some T/C values are followed by the survivors on the day toxicity was checked, most often the fifth; without a count, all were alive then. Residues, ends and D or L forms follow the SMILES beside them.

Turning to `C=C/C=C\N(CC)CC`, the survivor count (dose: 3.12 mg/kg/injection, schedule: Q01DX009 (ip), vehicle: water) was 4 of 6 and the survivor count (dose: 12.5 mg/kg/injection, schedule: Q01DX009 (ip), vehicle: water) is recorded as 6 of 6.
`O=C(NC1=NN(c2ccccc2)C(=O)C1)c1ccccc1`: under setting [1], the survivor count was 6 of 6.
In the case of `CN(C1=NS(=O)(=O)N=C(N(C)c2ccccc2)O1)c1ccccc1`, the T/C by setting is: (dose: 200.0 mg/kg/injection, schedule: Q01DX009 (ip), vehicle: saline with Tween-80) 139 % of control; under setting [2], 132 % of control; (dose: 400.0 mg/kg/injection, schedule: Q01DX009 (ip), vehicle: saline with Tween-80) 145 % of control [5 of 6 alive].
Turning to `Cc1ccc(NCCN2CCCCC2)c2c(=O)c3ccccc3sc12`, the T/C under setting [2] is 125 % of control; the T/C (dose: 400.0 mg/kg/injection, schedule: Q04DX003 (ip), vehicle: Klucel (hydroxypropylcellulose) (HPC)) was 140 and 145 % of control. Under setting [2], the survivor count is 5 of 6.
`C[C@H]1CN1C1=CC(=O)C(N2C[C@@H]2C)=CC1=O`: the T/C (dose: 0.06 mg/kg/injection, schedule: Q01DX009 (ip), vehicle: saline) is 127 % of control; the T/C (dose: 0.25 mg/kg/injection, schedule: Q01DX009 (ip), vehicle: saline) is 131 % of control; the T/C (dose: 2.0 mg/kg/injection, schedule: Q01DX009 (ip), vehicle: saline) was 133 % of control. Besides, the survivor count (dose: 4.0 mg/kg/injection, schedule: Q01DX009 (ip), vehicle: saline) is recorded as 6 of 6; the survivor count (dose: 8.0 mg/kg/injection, schedule: Q01DX009 (ip), vehicle: Klucel (hydroxypropylcellulose) (HPC)) was 6 of 6; the survivor count (dose: 8.0 mg/kg/injection, schedule: Q01DX009 (ip), vehicle: saline) is 4 of 6.
With `Nc1nc(N)c2nc(CNc3ccc(C(=O)NC(CC(=O)O)C(=O)O)cc3)cnc2n1` (configuration not stated), for the setting “dose: 150.0 mg/kg/injection, schedule: Q04DX003 (ip), vehicle: saline with Tween-80”, the survivor count was 1 of 6.
Turning to `CC1(C)N=C(N)N=C(N)N1c1ccc(CCc2ccccc2)cc1`, under setting [1], the survivor count is 0 of 6.
With `Brc1ccc(C[n+]2ccccc2)cc1`, the survivor count by setting is: (dose: 50.0 mg/kg/injection, schedule: Q04DX003 (ip), vehicle: saline) 3 of 6; (dose: 100.0 mg/kg/injection, schedule: Q04DX003 (ip), vehicle: saline) 0 of 6.
As for `C[N+](C)(C)Cc1ccccc1/C(=N\O)c1ccccc1`, the survivor count (dose: 20.0 mg/kg/injection, schedule: Q01DX009 (ip), vehicle: saline) was 4 of 6.
In the case of `CC(=O)NC(C)C(=O)NC(C)C(=O)NC(C)C(=O)NC(C)C(=O)O` (configuration not stated) (Ac-AAAA-OH; configuration not given here), the survivor count (dose: 200.0 mg/kg/injection, schedule: Q01DX005 (ip), vehicle: saline with Tween-80) is listed as 6 of 6.
For the molecule `N/C(=N\O)c1cccnc1`, the survivor count (dose: 300.0 mg/kg/injection, schedule: Q04DX003 (ip), vehicle: water) was 5 of 6.
In the case of `C[N+](C)(C)c1ncncn1`, the survivor count (dose: 100.0 mg/kg/injection, schedule: Q01DX001 (ip), vehicle: saline) is given as 2 of 6; the survivor count (dose: 200.0 mg/kg/injection, schedule: Q01DX001 (ip), vehicle: saline) is 2 of 6; the survivor count (dose: 400.0 mg/kg/injection, schedule: Q01DX001 (ip), vehicle: saline) is on record as 0 of 6.
With `CCCCNC(C)(C)CCl`, the survivor count was 6 of 6 (dose: 6.25 mg/kg/injection, schedule: Q01DX009 (ip), vehicle: water); 5 of 6 (dose: 50.0 mg/kg/injection, schedule: Q04DX003 (ip), vehicle: water); 3 of 6 (dose: 100.0 mg/kg/injection, schedule: Q04DX003 (ip), vehicle: water); 0 of 6 (dose: 200.0 mg/kg/injection, schedule: Q04DX003 (ip), vehicle: water).
Regarding `C1CN1P1(N2CC2)=NP(N2CC2)(N2CC2)=NP(N2CC2)(N2CC2)=N1`, the T/C (dose: 1.4 mg/kg/injection, schedule: Q01DX009 (ip), vehicle: saline) is 127 % of control. For the same molecule, the survivor count (dose: 5.0 mg/kg/injection, schedule: Q01DX009 (ip), vehicle: saline) was 6 of 6.
Consider `S=P(Oc1ccccc1)(N1CC1)N1CC1`, for which the survivor count is, setting by setting: (dose: 200.0 mg/kg/injection, schedule: Q01DX007 (ip), vehicle: DMSO) 6 of 6; (dose: 400.0 mg/kg/injection, schedule: Q01DX007 (ip), vehicle: DMSO) 6 of 6.
Turning to `C[CH2][Pb]([CH2]C)([CH2]C)[O]C(=O)COc1ccccc1`, the T/C (dose: 1.5 mg/kg/injection, schedule: Q01DX009 (ip), vehicle: Klucel (hydroxypropylcellulose) (HPC)) was 132 % of control; the T/C (dose: 3.0 mg/kg/injection, schedule: Q01DX009 (ip), vehicle: Klucel (hydroxypropylcellulose) (HPC)) was 125 % of control [5 of 6 alive]; the T/C (dose: 3.0 mg/kg/injection, schedule: Q04DX003 (ip), vehicle: saline with Tween-80) was 137 % of control; the T/C (dose: 3.12 mg/kg/injection, schedule: Q01DX009 (ip), vehicle: saline with Tween-80) was 137 and 138 % of control; the T/C (dose: 6.0 mg/kg/injection, schedule: Q04DX003 (ip), vehicle: saline with Tween-80) is 145 % of control. The survivor count runs as follows: (dose: 12.0 mg/kg/injection, schedule: Q01DX009 (ip), vehicle: Klucel (hydroxypropylcellulose) (HPC)) 2 of 6; (dose: 12.5 mg/kg/injection, schedule: Q01DX009 (ip), vehicle: saline with Tween-80) 2 of 6; (dose: 25.0 mg/kg/injection, schedule: Q01DX009 (ip), vehicle: saline with Tween-80) 0 of 6.
On to `O=C1C(N2CCOCC2)=C(N2CC2)C(=O)C(N2CCOCC2)=C1N1CC1`, for which, for the setting “dose: 0.75 mg/kg/injection, schedule: Q01DX009 (ip), vehicle: saline”, the T/C is 147 % of control.
